The test concerns the target T1, SUV39H1 with an N-terminal His6-MBP tag (UniProt O43463).
T1 sequence: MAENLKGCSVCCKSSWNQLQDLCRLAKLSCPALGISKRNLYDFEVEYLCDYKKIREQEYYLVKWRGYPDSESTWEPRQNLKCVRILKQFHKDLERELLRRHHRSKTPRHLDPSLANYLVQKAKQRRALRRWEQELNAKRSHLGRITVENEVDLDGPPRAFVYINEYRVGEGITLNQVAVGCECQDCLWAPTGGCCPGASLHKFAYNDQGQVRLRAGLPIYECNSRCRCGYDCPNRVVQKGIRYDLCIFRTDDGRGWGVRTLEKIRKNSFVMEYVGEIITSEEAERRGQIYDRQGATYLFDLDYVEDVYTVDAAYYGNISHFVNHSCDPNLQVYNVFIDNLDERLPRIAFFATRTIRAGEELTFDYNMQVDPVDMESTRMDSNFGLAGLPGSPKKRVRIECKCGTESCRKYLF
Nature of the test: co-purification.

Amino acid sequences for entries named in this document (tags omitted).
UniProt P83916, whole entry: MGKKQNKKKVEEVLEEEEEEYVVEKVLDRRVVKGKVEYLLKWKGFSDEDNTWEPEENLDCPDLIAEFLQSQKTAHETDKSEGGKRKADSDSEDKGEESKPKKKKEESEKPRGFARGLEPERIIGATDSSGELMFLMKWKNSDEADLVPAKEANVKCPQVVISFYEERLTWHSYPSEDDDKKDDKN

Results are given in words; binding and its absence hold for the method and conditions named. Some binding calls cover weakened binding; strength is not graded here. Sequences can lack the tags named with a protein.

In the case of HP1β (from UniProt P83916 1-185), the binding result was “binds”.

These data come from paper doi:10.1101/2020.01.19.911149 (bioRxiv, 2020).
